# Data taken from PubChem BioAssay AID758 (NMMLSC, 2007).
# Screen size: about 190,000 compounds; about 110 (0.058%) were called active. Inconclusive means that the source gave no clear call. Such entries were picked first, then a sample of the others.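 How the source made its calls: active means fluorescent GTP binding to Rab7 beads changed by at least 20 points from the 100% baseline, either direction, mostly lower; inconclusive means compound itself probably fluorescent, or too few beads counted; inactive means the rest.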
# System: Rab7 GTPase wild type (dog), Bodipy-FL-GTP binding
# Assay: modulators of GTP binding to Rab7, primary screen, biochemical, wildtype, multiplex bead flow cytometry (AID 758);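 further: median green fluorescence of bound Bodipy-FL-GTP per Rab7 bead population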
# Conditions: GST-Rab7 beads, fluorescent GTP binding, at 10 µM, actives lie on both sides, untreated = 100%, excess cold GTP = 0%
row,Compound,GTP binding activity (percent of control)
1,C=CCn1c(SCc2ccc(C(=O)Nc3ccccc3)cc2)nnc1-c1ccccc1,inconclusive: 107%
2,NC(=O)c1ccc(NC(=O)COC(=O)CCc2ccc(S(=O)(=O)N3CCCCC3)cc2)cc1,inactive: 99%
3,COc1ccc(CCNC(=O)c2c(O)c3c([nH]c2=O)CCCC3)cc1,inconclusive: 96%
4,CN(C)Cc1c(O)ccc2[nH]cnc12,inconclusive: 104%
5,CCCC(=O)Nc1nc(C)c(-c2csc(Nc3cc(OC)ccc3OC)n2)s1,inactive: 97%
6,Cc1ccc(NC(=O)c2ccc(NCc3ccco3)c([N+](=O)[O-])c2)cc1Cl,inactive: 101%
7,CCN=C1SC(CC(=O)NCCc2ccc(OC)cc2)C(=O)N1CC (configuration not stated),inconclusive: 104%
8,Cc1ccc(NC(=O)c2cccc3c2C(=O)N(C2CCCCC2)C3)cc1,inconclusive: 88%
9,CNC(=O)COC(=O)c1cc(NC(=O)c2ccco2)c(OC)c(OC)c1,inactive: 87%
10,Cc1onc(-c2c(Cl)cccc2Cl)c1C(N)=S,inactive: 100%
11,O=C(Nc1ccc2c(c1)C(=O)NC2=O)c1ccc(S(=O)(=O)N2CCCC2)cc1,inconclusive: 110%
12,COc1ccccc1CNC(=O)COC(=O)c1ccc(S(=O)(=O)N2CCCC2)cc1,inconclusive: 104%
13,O=C(NCc1ccncc1)C(=O)NCc1ccncc1,inconclusive: 98%
14,Cc1nc(N)sc1C(=O)N/N=C/c1ccccc1[N+](=O)[O-],inconclusive: 90%
15,O=C(Nc1ccccc1C(=O)NC(Cc1ccccc1)C(=O)NC1CCCCCC1)c1ccccc1 (configuration not stated),inconclusive: 100%
16,Cn1c(NC(=O)c2ccccc2)c(-c2cccs2)c(=O)c2ccccc21,inactive: 101%
17,O=C(Nc1nnc(-c2ccco2)o1)c1ccc([N+](=O)[O-])s1,inactive: 95%
18,O=C(COC(=O)CCc1c[nH]c2ccccc12)Nc1ccc([N+](=O)[O-])cc1,inconclusive: 94%
19,COc1ccccc1CNc1ccc(N2CCOCC2)c(C(=O)O)c1,inactive: 99%
20,CCN(CC)CCn1c(=S)[nH]c2ccc(Cl)cc2c1=O,inconclusive: 98%
21,NC(=S)Nc1cccc2cc3ccccc3cc12,inconclusive: 86%
22,CCNC(=S)NNC(=O)c1cccn(Cc2ccc(Cl)cc2)c1=O,inconclusive: 109%
23,COc1ccc(NC(=S)NC(NC(=O)c2ccc(Cl)cc2Cl)C(Cl)(Cl)Cl)c([N+](=O)[O-])c1 (configuration not stated),inconclusive: 90%
24,CCCCCOC(=O)NC1CCS(=O)(=O)C1 (configuration not stated),inactive: 104%

row,Compound,GTP binding activity (percent of control)
1,CCOc1ccc(C2N(c3ccc(F)cc3)C(=O)C3CCCN32)cc1OC (configuration not stated),inconclusive: 101%
2,CCNC(=O)NC(=O)C(C)OC(=O)c1cccn1C (configuration not stated),inactive: 104%
3,COc1ccc2[nH]c(C(=O)O)c(CCNC(C)=O)c2c1,inconclusive: 93%
4,O=C(CSc1nnc(-c2ccncc2)n1-c1ccc(Cl)cc1)Nc1ccc(C(=O)O)cc1,inconclusive: 88%
5,COC(=O)c1[nH]c2ccccc2c1NC(=O)CNC1CCCCC1,inactive: 104%
6,Cc1c(NC(=O)c2ccc3c(c2)C(=O)N(Cc2ccco2)C3=O)cccc1C(=O)O,inconclusive: 91%
7,Cc1ccc(OCC(=O)Nc2ccc(N3CCN(C(=O)c4ccco4)CC3)cc2)cc1,inconclusive: 99%
8,O=C(NC12CC3CC(CC(C3)C1)C2)N1CCN(C(=O)c2ccco2)CC1,inconclusive: 94%
9,COc1ccc(S(=O)(=O)Nc2ccc(N3CCOCC3)nc2)cc1,inactive: 94%
10,Fc1ccc(CNCc2ccccc2Cl)cc1,inconclusive: 89%
11,COC(=O)c1cc(OC)c(OC)cc1NC(=O)c1ccccc1,inconclusive: 103%
12,Cc1ccc(SCCC(=O)N2CCC(C(N)=O)CC2)cc1,inconclusive: 95%
13,COC(=O)c1ccc(Oc2cc(C)nc(SC)n2)cc1,inconclusive: 105%
14,NC(=O)c1cc2ccccc2o/c1=N/NC(=O)c1cccs1,inconclusive: 89%
15,CCc1cc(C(c2ccccc2OC)N2CCOCC2)c(NC(=O)c2ccccc2)s1 (configuration not stated),inconclusive: 100%
16,COc1ccc(C(=O)C2CCCN(Cc3ccc(Sc4nncn4C)o3)C2)cc1F (configuration not stated),inactive: 98%
17,CN(C)c1ccc(/C=N\NC(=O)CC#N)cc1,inconclusive: 96%
18,O=C(CSc1nnc(-c2ccco2)o1)c1ccc[nH]1,inconclusive: 94%
19,C/C(=N\n1cnnc1)c1ccc(C#N)cc1,inconclusive: 97%
20,c1ccc(-c2nc(NCCCn3ccnc3)c3oc4ccccc4c3n2)cc1,inconclusive: 95%
21,COc1ccc(/C=C(/NC(=O)/C=C/c2ccccc2)C(=O)N2CCOCC2)cc1,inconclusive: 101%
22,c1ccc(CSc2ccc3nnc(-c4cccnc4)n3n2)cc1,inconclusive: 94%
23,COc1ccc(C(=O)NNC(=S)NC(=O)c2cc(-c3ccccc3)nc3ccccc23)cc1,inconclusive: 92%

# Looked up by structure from above (2):
row,Compound,GTP binding activity (percent of control)
11,COC(=O)c1cc(OC)c(OC)cc1NC(=O)c1ccccc1,inconclusive: 103%
15,CCc1cc(C(c2ccccc2OC)N2CCOCC2)c(NC(=O)c2ccccc2)s1 (configuration not stated),inconclusive: 100%
